{"source": "paper PMC10511046", "note": "No constants are given. Whether binding was seen depends on the method and setting. Binding seen in cells or lysates may run through a third protein. Binding can be weak; no strength is given."}
{"biological_target": "T1, Full-length Igsf9b (expressed in HEK293) (UniProt E9PZ19)", "T1 sequence": "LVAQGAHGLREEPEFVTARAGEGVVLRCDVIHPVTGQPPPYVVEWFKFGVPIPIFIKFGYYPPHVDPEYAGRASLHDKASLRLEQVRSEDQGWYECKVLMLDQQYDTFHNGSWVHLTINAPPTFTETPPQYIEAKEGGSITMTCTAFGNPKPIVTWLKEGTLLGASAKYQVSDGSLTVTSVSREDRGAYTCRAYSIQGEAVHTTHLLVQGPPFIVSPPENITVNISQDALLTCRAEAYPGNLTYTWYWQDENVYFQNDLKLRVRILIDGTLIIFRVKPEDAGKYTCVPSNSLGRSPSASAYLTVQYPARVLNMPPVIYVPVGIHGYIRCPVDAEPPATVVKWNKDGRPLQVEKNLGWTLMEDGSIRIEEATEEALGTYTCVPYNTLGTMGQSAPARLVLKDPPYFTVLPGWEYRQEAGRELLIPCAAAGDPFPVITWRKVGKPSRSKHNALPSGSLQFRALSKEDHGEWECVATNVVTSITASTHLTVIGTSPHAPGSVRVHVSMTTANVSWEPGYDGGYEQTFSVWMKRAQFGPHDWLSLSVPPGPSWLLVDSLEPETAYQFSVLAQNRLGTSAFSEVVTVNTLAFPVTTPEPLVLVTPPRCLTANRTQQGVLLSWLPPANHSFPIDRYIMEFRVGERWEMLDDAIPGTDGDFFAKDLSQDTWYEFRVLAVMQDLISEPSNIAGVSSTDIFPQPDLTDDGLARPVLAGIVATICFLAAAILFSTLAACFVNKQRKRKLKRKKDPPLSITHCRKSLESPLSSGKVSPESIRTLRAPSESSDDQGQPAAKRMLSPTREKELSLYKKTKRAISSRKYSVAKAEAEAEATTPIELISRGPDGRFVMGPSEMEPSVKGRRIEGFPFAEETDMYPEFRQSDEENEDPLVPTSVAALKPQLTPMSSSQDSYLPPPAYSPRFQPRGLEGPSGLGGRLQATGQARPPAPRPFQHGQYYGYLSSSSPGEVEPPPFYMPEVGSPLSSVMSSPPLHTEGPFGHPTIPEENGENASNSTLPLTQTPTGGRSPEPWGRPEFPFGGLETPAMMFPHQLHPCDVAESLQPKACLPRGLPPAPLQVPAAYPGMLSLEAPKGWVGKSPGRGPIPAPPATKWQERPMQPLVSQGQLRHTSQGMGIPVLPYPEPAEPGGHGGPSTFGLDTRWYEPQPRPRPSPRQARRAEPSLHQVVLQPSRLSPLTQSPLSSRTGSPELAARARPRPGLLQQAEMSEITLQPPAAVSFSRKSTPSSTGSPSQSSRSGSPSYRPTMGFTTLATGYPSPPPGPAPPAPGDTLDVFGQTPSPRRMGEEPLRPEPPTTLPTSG", "assay": "co-IP; HEK293 cells transiently expressing GFP-Prickle2 constructs and Igsf9b, lysed in RIPA buffer; Igsf9b precipitated with anti-Igsf9b antibody, immunoblotting with anti-GFP antibody"}
{"substance": "GFP-tagged Prickle2 fragment PK2-C1 (aa 600-886) (mouse) (domain or fragment)", "binding": "no binding"}
{"substance": "GFP-tagged Prickle2 fragment PK2-N1 (aa 1-324) (mouse) (domain or fragment)", "binding": "no binding"}
{"substance": "GFP-tagged Prickle2 fragment PK2-N2 (aa 1-599) (mouse) (domain or fragment)", "binding": "binds"}
{"substance": "GFP-tagged Prickle2 mutant lacking the third LIM domain (PK2-del325_370) (mouse)", "binding": "no binding"}
{"substance": "GFP-tagged full-length Prickle2 (mouse)", "binding": "binds"}
